Record: PubChem BioAssay AID1259424 (University of Nebraska Medical Center, 2018)
Aim: 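Find knockdowns that reproduce the expression shifts seen after KSR1 loss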 (primary screen). System: human HCT116 colon cancer cells. Reagents: siRNA pool against human genes, 50 nM. Measurement: 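Log2 levels of six mRNAs (branched-DNA multiplex), adjusted by two reference genes and the non-targeting median, then scored against the average KSR1 knockdown pattern as Pearson r and euclidean distance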. Scale: mean correlation with KSR1 profile and KSR1 correlation: higher = expression change more like KSR1 knockdown; mean distance from KSR1 profile: higher = expression change less like KSR1 knockdown.
Shown is one part, drawn at random, of about 14,000 reagents tested. 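Higher correlation or smaller distance means closer resemblance to KSR1 loss; control wells, including KSR1 knockdowns, recur on many plates.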 No sequences are given here. Not stated in the record: the time to read-out.

target gene,mean correlation with KSR1 profile,mean distance from KSR1 profile,"KSR1 correlation, replicate 1","KSR1 correlation, replicate 2","KSR1 correlation, replicate 3"
N4BP2L1 (NEDD4 binding protein 2 like 1),0.104,1.27,0.195,0.00884,0.0308
YPEL1 (yippee like 1),0.741,2.27,0.704,0.633,0.6
CLCNKB (chloride voltage-gated channel Kb),-0.534,1.77,-0.536,-0.66,-0.462
SLC40A1,-0.161,1.95,-0.0044,0.258,-0.104
MRPL51 (mitochondrial ribosomal protein L51),-0.307,1.45,-0.428,-0.159,-0.0894
INPP4B (inositol polyphosphate-4-phosphatase type II B),0.101,1.68,0.242,-0.161,0.149
"DPM2 (dolichyl-phosphate mannosyltransferase subunit 2, regulatory)",0.232,1.35,-0.0284,0.581,0.0916
PCDHA4 (protocadherin alpha 4),0.157,1.76,-0.214,0.00727,0.248
"NACA4P (NACA family member 4, pseudogene)",0.93,0.896,-0.0852,0.965,0.939
MED25 (mediator complex subunit 25),0.0592,2.32,-0.00141,0.0324,-0.269
MYCT1 (MYC target 1),0.413,2.5,0.304,0.341,0.368
BYSL (bystin like),-0.295,1.62,0.491,-0.276,-0.317
C12orf43 (chromosome 12 open reading frame 43),-0.677,2.35,-0.65,-0.74,-0.646
TP53TG1 (TP53 target 1),-0.0934,2.34,-0.0593,-0.0349,-0.266
KRT10 (keratin 10),-0.29,2.47,-0.214,-0.577,-0.163
KDM5C (lysine demethylase 5C),0.261,2.37,0.34,0.317,0.208
ZNF341 (zinc finger protein 341),0.575,2.2,0.568,0.404,0.357
ABCA5 (ATP binding cassette subfamily A member 5),-0.4,1.51,-0.0237,-0.337,-0.302
ERGIC3 (ERGIC and golgi 3),0.208,2.55,0.485,0.212,0.148
PADI4 (peptidyl arginine deiminase 4),-0.662,2.53,-0.405,-0.896,-0.779
APLP2 (amyloid beta precursor like protein 2),0.178,2.95,0.123,0.172,0.0505
PLP1 (proteolipid protein 1),-0.253,2.45,-0.346,-0.407,-0.316
CHST3 (carbohydrate sulfotransferase 3),-0.204,2.19,-0.343,-0.12,-0.031
P2RX1 (purinergic receptor P2X 1),0.0225,4.68,-0.137,0.0454,-0.123
GPRIN2 (G protein regulated inducer of neurite outgrowth 2),0.389,1.28,0.35,0.53,0.242
GPX3 (glutathione peroxidase 3),0.733,2.33,0.683,0.57,0.902
IL27RA (interleukin 27 receptor subunit alpha),0.701,1.85,0.751,0.724,0.571
TXNL1 (thioredoxin like 1),-0.758,1.79,-0.779,-0.651,-0.679
CYTH1 (cytohesin 1),0.0683,1.32,-0.257,0.484,0.139
SIRPG (signal regulatory protein gamma),-0.299,1.87,-0.341,-0.16,-0.083
TIA1 (TIA1 cytotoxic granule associated RNA binding protein),0.0423,3.53,0.152,0.154,-0.204
NRBP2 (nuclear receptor binding protein 2),-0.228,1.84,0.312,0.522,-0.736
IFNA17 (interferon alpha 17),0.19,2.01,0.249,0.102,0.178
POU2AF1 (POU class 2 homeobox associating factor 1),-0.838,3.02,-0.697,-0.2,-0.897
CRYBG1 (crystallin beta-gamma domain containing 1),0.314,1.22,0.228,0.277,0.368
ABHD11 (abhydrolase domain containing 11),0.188,2.98,0.35,0.105,-0.115
MAPK6 (mitogen-activated protein kinase 6),0.245,1.39,-0.0549,0.8,-0.357
"DBI (diazepam binding inhibitor, acyl-CoA binding protein)",-0.272,2.59,-0.131,-0.307,-0.424
SIAH2 (siah E3 ubiquitin protein ligase 2),0.521,0.915,0.199,0.419,0.551
UGT1A1 (UDP glucuronosyltransferase family 1 member A1),-0.487,2.82,-0.497,-0.351,-0.743
"TNNT2 (troponin T2, cardiac type)",-0.553,2.37,-0.575,-0.551,-0.432
TRIM62 (tripartite motif containing 62),-0.0947,1.62,0.207,-0.342,-0.257
FBL (fibrillarin rRNA 2'-O-methyltransferase),-0.577,3.06,-0.656,-0.687,-0.526
OTUD3 (OTU deubiquitinase 3),0.62,1.22,0.596,0.525,0.686
ZNF771 (zinc finger protein 771),0.445,4.66,0.332,0.52,0.435
SERF1A (small EDRK-rich factor 1A),0.159,2.92,-0.0955,0.212,0.264
HABP2 (hyaluronan binding protein 2),-0.216,1.56,-0.731,-0.41,0.886
CHL1 (cell adhesion molecule L1 like),-0.402,1.65,-0.23,-0.487,-0.226
TPP2 (tripeptidyl peptidase 2),0.193,2.93,0.385,0.121,0.24
TRAPPC12 (trafficking protein particle complex subunit 12),0.248,2.74,0.362,0.274,0.263
